# The shares of active, inactive and inconclusive entries below differ from those in the screen. For some of these results: A potency beside an inconclusive call is a rough fit, not a confirmed value. Calls of active or inactive are those of the source. Unless noted, calls follow the shape of the dose curve; as a rule, active = well fitted curve in the direction sought with a large enough effect; inconclusive = small, poorly fitted or top-dose-only effect, or another doubt; inactive = no such curve, though single readings can be large; an effect the other way counts as inactive or inconclusive.
# Amino acid sequences for entries named in this document (tags omitted). Residues count along the entry.
# UniProt P14618, whole entry, looked up: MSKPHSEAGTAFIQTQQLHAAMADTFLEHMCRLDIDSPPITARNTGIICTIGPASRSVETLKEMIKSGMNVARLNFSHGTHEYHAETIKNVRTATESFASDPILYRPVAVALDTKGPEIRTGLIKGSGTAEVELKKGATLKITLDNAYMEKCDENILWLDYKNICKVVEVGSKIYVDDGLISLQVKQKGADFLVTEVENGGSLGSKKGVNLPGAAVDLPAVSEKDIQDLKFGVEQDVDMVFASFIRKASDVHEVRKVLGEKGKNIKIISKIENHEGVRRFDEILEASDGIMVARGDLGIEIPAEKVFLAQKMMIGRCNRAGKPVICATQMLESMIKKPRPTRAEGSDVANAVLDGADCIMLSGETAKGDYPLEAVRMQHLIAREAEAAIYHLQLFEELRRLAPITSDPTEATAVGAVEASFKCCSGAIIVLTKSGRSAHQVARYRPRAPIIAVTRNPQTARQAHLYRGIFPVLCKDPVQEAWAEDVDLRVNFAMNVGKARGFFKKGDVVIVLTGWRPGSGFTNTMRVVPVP
# UniProt Q27686, 2-499 E452W: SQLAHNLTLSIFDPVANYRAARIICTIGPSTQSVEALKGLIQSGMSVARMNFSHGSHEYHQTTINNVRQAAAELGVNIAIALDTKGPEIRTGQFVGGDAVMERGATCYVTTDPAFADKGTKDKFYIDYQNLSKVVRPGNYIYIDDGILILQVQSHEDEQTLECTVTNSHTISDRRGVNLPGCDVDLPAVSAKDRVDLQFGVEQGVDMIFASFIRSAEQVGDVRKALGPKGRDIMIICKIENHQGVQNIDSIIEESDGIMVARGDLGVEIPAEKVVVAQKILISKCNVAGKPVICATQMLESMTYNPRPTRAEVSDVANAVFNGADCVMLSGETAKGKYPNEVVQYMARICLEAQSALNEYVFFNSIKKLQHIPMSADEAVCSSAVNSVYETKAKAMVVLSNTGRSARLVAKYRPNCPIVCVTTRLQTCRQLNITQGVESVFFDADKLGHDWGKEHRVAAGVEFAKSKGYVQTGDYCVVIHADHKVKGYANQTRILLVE
# What was measured:
# [1] = MultiTox-Fluor Cytotoxicity Assay - LYMP1-001 - Live Cells (AID 947); conditions: LYMP1-001 lymphoblastoid cells, live-cell protease fluorescence viability; series mostly up to 92.2 µM; also: potency is read from the fitted curve at half-maximal effect
# [2] = Cell Viability - LYMP1-002 - Assay at 16 hr (AID 948); conditions: LYMP1-002 lymphoblastoid cell viability; series mostly up to 92.2 µM; also: potency is read from the fitted curve at half-maximal effect
# Method in brief: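 LYMP1-002 human lymphoblastoid cells, 2500/well, were treated with compounds for 16 hr at 37 C in complete medium. Viability was read as intracellular ATP by CellTiter-Glo luminescence, and AC50 was derived from a Hill fit to concentration-response data.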
# [3] = MultiTox-Fluor Cytotoxicity Assay - LYMP1-002 - Live Cells (AID 955); conditions: LYMP1-002 lymphoblastoid live-cell protease fluorescence viability; series mostly up to 46.1 µM;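 also: potency is read from the fitted curve at half-maximal effect; cells exposed to compound for 16 hours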
# Method in brief: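 Human lymphoblastoid LYMP1-002 cells, 2500/well, treated 16 h at 37 C in complete medium. Live-cell protease activity via GF-AFC fluorescence (Ex/Em 405/510) after 60 min reagent incubation; AC50 from Hill fits.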
# [4] = MultiTox-Fluor Cytotoxicity Assay - LYMP1-002 - Dead Cells (AID 960); conditions: LYMP1-002 lymphoblastoid cells, dead-cell protease fluorescence; series mostly up to 46.1 µM; also: nearly all actives have a fitted effect of over 60% in size; also: potency is read from the fitted curve at half-maximal effect
# Method in brief: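 Human lymphoblastoid LYMP1-002 cells, 2500/well, treated 16 h at 37 C; dead-cell protease cleavage of bis-AAF-R110 read by fluorescence (485/520); normalized to DMSO and 15 uM tetraoctylammonium bromide; AC50 from Hill fit.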
# [5] = MultiTox-Fluor Cytotoxicity Assay - LYMP1-003 - Live Cells (AID 962); conditions: LYMP1-003 lymphoblastoid cells, MultiTox-Fluor live-cell protease fluorescence; series mostly up to 92.2 µM;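 also: potency is read from the fitted curve at half-maximal effect; cells exposed to compound for 16 hours at 37 °C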
# Method in brief: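 LYMP1-003 lymphoblastoid cells, 2500/well in complete medium, treated 16 h at 37 C; live-cell protease cleavage of GF-AFC read by fluorescence (Ex/Em 405/510) after 60 min reagent; AC50 from Hill fits of concentration-response.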
# [6] = MultiTox-Fluor Cytotoxicity Assay - LYMP1-003 - Dead Cells (AID 961); conditions: LYMP1-003 lymphoblastoid cells, dead-cell protease fluorescence;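 also: potency is read from the fitted curve at half-maximal effect; cells exposed to compound for 16 h at 37 °C; nearly all actives have a fitted effect of over 70% in size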
# Method in brief: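 Human lymphoblastoid LYMP1-003 cells (2500/well) were treated with compounds for 16 hr at 37 C in complete medium. Dead-cell protease release was read by bis-AAF-R110 fluorescence (Ex/Em 485/520). AC50 came from Hill fits, normalized to DMSO and 15 uM tetraoctylammonium bromide.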
# [7] = Cell Viability - LYMP1-003 - Assay at 24 hr (AID 963); conditions: LYMP1-003 lymphoblastoid cell viability; also: potency is read from the fitted curve at half-maximal effect
# Method in brief: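 Human lymphoblastoid LYMP1-003 cells, 2500/well, treated 24 h at 37 C in complete medium. Viability read as intracellular ATP by CellTiter-Glo luminescence after 30 min at room temperature; AC50 from Hill-equation fits of qHTS concentration-response.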
# [8] = target: Pyruvate kinase PKM (Homo sapiens) (UniProt P14618); assay: qHTS Assay for Activators of Human Muscle Pyruvate Kinase (AID 954; active = well fitted curve in the direction sought with a large enough effect, not every such curve was filed as active; inconclusive = small, poorly fitted or top-dose-only effect, or effect the other way, or another doubt; inactive = no such curve, though single readings can be large or run the other way); conditions: purified human muscle pyruvate kinase, luciferase-coupled luminescence, 1 h
# Method in brief: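 Luminescence from a luciferase ATP-detection/stop reagent reported PKM2 activity. Reactions contained 0.1 nM purified human enzyme, 0.5 mM PEP, 0.1 mM ADP and 7 mM MgCl2 at pH 7.2, run 1 h at RT.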
# [9] = target: Pyruvate kinase PKM (Homo sapiens) (UniProt P14618); assay: qHTS Assay for Inhibitors of Human Muscle Pyruvate Kinase (AID 958); conditions: purified human PKM enzyme activity; series mostly up to 57.5 µM
# Method: NIH Molecular Libraries Screening Centers Network [MLSCN]
# NIH Chemical Genomics Center [NCGC]
# Wael M. Rabeh, Lyudmila Nedyalkova and Hee-Wan Park [Structural Genomics Consortium, 100 College St. Toronto, Ontario, Canada]
# Human pyruvate kinase muscle 2 enzyme was supplied as a highly purified (>95% pure) preparation by the Structural Genomics Consortium in Toronto (Ontario, Canada) and was assayed for its ability to generate ATP from ADP using phosphoenolpyruvate (PEP) as a substrate. ATP generation was detected in a coupled reaction by luciferase-mediated luminescence, an ATP-dependent process. Pyruvate kinase substrates, PEP and ADP, were present in the assay at Km and approximately […]-fold below Km respectively. The enzyme was assayed at an intermediate level of activity to screen for inhibitors and activators.
# NCGC Assay Protocol Summary:
# Three uL of substrate mix (final concentration, 50 mM imidazole pH 7.2, 50 mM KCl, 7 mM MgCl2, 0.5 mM PEP, 0.1 mM ADP, 0.01% Tween 20, 0.05% BSA) was dispensed into 1536 well plates. 23 nL of compound were delivered by a pin tool and 1 uL of enzyme mix (final concentration, 0.1 nM pyruvate kinase, 50 mM imidazole pH 7.2, 0.05% BSA) was added. Plates were incubated at room temperature for 1 hour. Two uL of detection and kinase stop mix (PKLight, Cambrex) was added, the plates centrifuged, and luminescence read by a ViewLux (Perkin Elmer) at 5 second exposure/plate. Data were normalized to the uninhibited and AC100 inhibition (no enzyme or 110 uM N-methyl-2,3-diphenyl-1,2,4-thiadiazol-5-imine; CID: 682802; LOPAC-S-4063). To monitor activation, 0.3 nM pyruvate kinase was included in one control column.
# [10] = target: Pyruvate kinase (Leishmania mexicana) (UniProt Q27686); assay: qHTS Validation Assay for Activators of Leishmania Mexicana Pyruvate Kinase (AID 959); conditions: purified L. mexicana pyruvate kinase, enzyme activity
# Method in brief: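 Read-out: luminescence from PKLight stop/detection reagent, data normalized to DMSO. Reaction: 0.2 nM E451W LmPYK, 0.5 mM PEP, 0.1 mM ADP, pH 7.2, 1 h room temperature.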
compound,measurement,setting,value
CCOP(=O)(NC(C)C)Oc1ccc(SC)c(C)c1 (stereo not drawn),Potency,[1],"inconclusive: 0.1 µM [cytotoxic, full curve, poor fit]"
CC[n+]1c(-c2ccccc2)c2cc(N)ccc2c2ccc(N)cc21,Potency,[1],active: 25.1 µM
same,Potency,[2],"inconclusive: 39.8 µM [cytotoxic, partial curve]"
same,Potency,[3],"inconclusive: 12.6 µM [cytotoxic, partial curve]"
same,Potency,[4],"inconclusive: 31.6 µM [cytotoxic, single point]"
same,Potency,[5],active: 12.6 µM
C[C@]12C/C(=C/O)C(=O)C[C@@H]1CC[C@@H]1[C@@H]2CC[C@@]2(C)[C@H]1CC[C@]2(C)O,Potency,[1],"inconclusive: 50.1 µM [cytotoxic, partial curve, poor fit]"
same,Potency,[3],"inconclusive: 15.8 µM [cytotoxic, partial curve]"
same,Potency,[4],"inconclusive: 25.1 µM [cytotoxic, partial curve, poor fit]"
same,Potency,[6],"inconclusive: 50.1 µM [cytotoxic, partial curve]"
CN(C)C(=S)SSC(=S)N(C)C,Potency,[1],active: 39.8 µM
same,Potency,[2],active: 20 µM
same,Potency,[4],"inconclusive: 20 µM [falling, partial curve, poor fit]"
same,Potency,[5],active: 50.1 µM
CCCCOC(=O)c1ccccc1C(=O)OCc1ccccc1,Potency,[1],inactive
same,Potency,[4],"inconclusive: 15.8 µM [cytotoxic, full curve, poor fit]"
O=C(O)COc1ccccc1,Potency,[1],"inconclusive: 0.1 µM [cytotoxic, full curve, poor fit]"
O=C(O)CCCc1ccc(N(CCCl)CCCl)cc1,Potency,[1],"inconclusive: 39.8 µM [cytotoxic, partial curve, poor fit]"
C[C@H]1CC[C@@H]2[C@@H](C)[C@H]3[C@H](C[C@H]4[C@@H]5CC=C6CC(O[C@@H]7O[C@H](CO)[C@H](O)[C@H](O[C@@H]8O[C@H](CO)[C@@H](O)[C@H](O)[C@H]8O)[C@H]7O[C@H]7O[C@@H](C)[C@H](O)[C@@H](O)[C@H]7O)CC[C@]6(C)[C@H]5CC[C@]34C)N2C1 (stereo partly drawn),Potency,[1],active: 31.6 µM
same,Potency,[2],active: 31.6 µM
same,Potency,[3],active: 12.6 µM
same,Potency,[7],active: 20 µM
OCCCBr,Potency,[1],"inconclusive: 0.501 µM [cytotoxic, full curve, poor fit]"
[Cl-].[Cl-].[Hg+2],Potency,[1],active: 31.6 µM
same,Potency,[4],"inconclusive: 12.6 µM [falling, partial curve]"
same,Potency,[6],"inconclusive: 50.1 µM [falling, partial curve]"
same,Potency,[5],active: 15.8 µM
same,Potency,[7],active: 7.94 µM
CCOC(=O)CC(SP(=S)(OC)OC)C(=O)OCC (stereo not drawn),Potency,[1],inactive
same,Potency,[4],"inconclusive: 2.51 µM [cytotoxic, full curve]"
CN(N=O)c1ccc(O)c(O)c1,Potency,[8],"inconclusive: 398 nM [activator, full curve]"
same,Potency,[9],inactive
CC(C)Nc1ccc(Nc2ccccc2)cc1,Potency,[1],active: 31.6 µM
same,Potency,[2],active: 39.8 µM
same,Potency,[4],"inconclusive: 12.6 µM [cytotoxic, full curve]"
same,Potency,[6],active: 25.1 µM
COP(=O)(OC)OC=C(Cl)Cl,Potency,[1],"inconclusive: 39.8 µM [cytotoxic, partial curve]"
same,Potency,[2],"inconclusive: 31.6 µM [cytotoxic, partial curve] and inactive"
same,Potency,[3],"inconclusive: 15.8 µM [cytotoxic, partial curve]"
same,Potency,[5],"inconclusive: 31.6 µM [cytotoxic, partial curve]"
O=C(CCl)c1ccc(Cl)cc1Cl,Potency,[1],active: 12.6 µM
same,Potency,[2],active: 15.8 µM
same,Potency,[4],active: 7.94 µM
same,Potency,[5],active: 15.8 µM
CN(N=O)c1cc(O)ccc1O,Potency,[8],"inconclusive: 3980 nM [activator, full curve, poor fit]"
same,Potency,[9],inactive
same,Potency,[10],active: 3.16 µM
O=CC=O,Potency,[1],inactive
same,Potency,[4],inactive
CC(=O)[O][Hg][c]1ccccc1,Potency,[1],active: 5.01 µM
same,Potency,[3],active: 3.16 µM
same,Potency,[5],active: 3.16 µM
O=C1C2CC=CCC2C(=O)N1SC(Cl)(Cl)Cl (stereo not drawn),Potency,[1],active: 12.6 µM
same,Potency,[4],active: 5.01 µM
same,Potency,[7],active: 12.6 µM
CCCC(C)(COC(N)=O)COC(=O)NC(C)C (stereo not drawn),Potency,[1],"inconclusive: 20 µM [cytotoxic, full curve, poor fit]"
CCCCCCCCCCCC[N+](C)(C)CCOc1ccccc1,Potency,[1],active: 25.1 µM
same,Potency,[4],"inconclusive: 7.94 µM [cytotoxic, partial curve, poor fit]"

# 3 entries drawn at random from those above:
compound,measurement,setting,value
CC[n+]1c(-c2ccccc2)c2cc(N)ccc2c2ccc(N)cc21,Potency,[2],"inconclusive: 39.8 µM [cytotoxic, partial curve]"
O=C(CCl)c1ccc(Cl)cc1Cl,Potency,[4],active: 7.94 µM
CCOP(=O)(NC(C)C)Oc1ccc(SC)c(C)c1 (stereo not drawn),Potency,[1],"inconclusive: 0.1 µM [cytotoxic, full curve, poor fit]"
